# Results taken from PMC9555560, “Fast relaxing red and near-IR switchable azobenzenes with chalcogen and halogen substituents: periodic trends, tuneable thermal half-lives and chalcogen bonding” (Chemical Science, 2022).
# Assay: E → Z photo-isomerisation with LEDs / photo-stationary state (PSS) determination
# Format: physicochemical
# Design: key to τ 1/2 (footnote symbol printed instead of a half-life: outcome under irradiation): Decomposed under irradiation with light.; No photo-switching observed
# Conditions: 660 nm
# Protocol: The E → Z photo-isomerisation and half-life for the Z → E thermal isomerisation was evaluated for all derivatives (Fig. 7 and Table 1, see ESI ^† for original data). To our surprise, the half-lives for (Z)-X2,m-Y2 derivatives were in the order of hours to days for X = F and Cl: the effect of the meta group was not as drastic as anticipated. We typically observed a ∼4 fold decrease in half-life by substituting H with OMe, and a further 3-fold drop from OMe to NMe2 for X = F, Cl and SEt. The nature of the ortho-substituent appeared to be the main influence on τ1/2 (F > Cl ≫ SEt). However, these predictable trends observed for the meta-substitution allow for precise tuning of thermal half-lives. The photo-stationary states (PSSs) of these derivatives ranged from 48–77% Z isomer (Table 1).
# Remarkably, it was possible to photo-switch the tetra-iodo derivative I4-ester using near-IR light (730 nm) (Fig. 8C). […] Photo-isomerisation was not detected for the ortho-telluro derivatives. This is consistent with findings by Haberhauer and co-workers, who propose that the strong chalcogen bonds in the E isomer of a PhTe-substituted azobenzene lead to dramatic energy differences between the E and Z isomers, which suppresses photoswitching.[43] The photo-stationary states of the halogen X4 derivatives range from 50–84% (Table 1) and could also be determined for the slower relaxing chalcogen derivatives (PSS 46–95%, see Fig. S308–S323 ^† for original data).
# All UV-vis spectra were determined in DMSO solution. Extinction coefficients were determined by recording a UV-vis spectra for the E isomer at 10, 20, 30, 40 µM in DMSO respectively. The absorbance at the maximum of the π - π* transition of the E‐isomers was plotted against concentration (Beer-Lambert plot) to determine the molar extinction coefficient ε. For each slow relaxing compound, the E isomer sample at 40 µM was irradiated with the appropriate wavelength of light to generate the photo-stationary state, and another spectrum was run. This spectrum was normalised to units of ε and overlaid with the dark (100% E isomer) spectrum.
# Deconvoluted spectra were prepared using Origin Pro 2020b by fitting each λmax to the “Multiple Peak […]
# Photo-irradiation of liquid samples was carried out using Thorlabs high-power mounted LEDs (models […]
# M530L4 (green, 530 nm); in-house custom built set-ups using optical components supplied by Thorlabs, as described in reference 2
row,SMILES,Switching with 660 nm light
1,C[Se]c1cc(CNC(=O)OC(C)(C)C)cc([Se]C)c1/N=N/c1c([Se]C)cc(CNC(=O)OC(C)(C)C)cc1[Se]C [(SeMe)4-NHBoc],does not switch
2,CC(C)(C)OC(=O)NCc1cc(I)c(N=Nc2c(I)cc(CNC(=O)OC(C)(C)C)cc2I)c(I)c1 [I4-NHBoc],readily isomerise
3,CCOC(=O)c1cc(I)c(N=Nc2c(I)cc(C(=O)OCC)cc2I)c(I)c1 [I4-ester],readily isomerise

# Same assay, conditions: DMSO, 298 K
row,SMILES,τ 1/2 (footnote symbol printed instead of a half-life: outcome under irradiation)
1,"CC(C)(C)OC(=O)NCc1ccc(/N=N/c2ccc(CNC(=O)OC(C)(C)C)cc2N2CCCC2)c(N2CCCC2)c1 [(N(CH2)4)2,m-H]",^c
2,"COc1cc(CNC(=O)OC(C)(C)C)c(OC)c(F)c1/N=N/c1c(OC)cc(CNC(=O)OC(C)(C)C)c(OC)c1F [(OMe)2F2,m-OMe2-NHBoc]",^c
3,"CCOP(=O)(OCC)c1ccccc1/N=N/c1ccccc1P(=O)(OCC)OCC [(PO(OEt)2)2,m-H]",^c
4,"CCSc1cc(CNC(=O)OC(C)(C)C)c(OC)c(SCC)c1/N=N/c1c(SCC)cc(CNC(=O)OC(C)(C)C)c(OC)c1SCC [(SEt)4,m-OMe2-NHBoc]",^c
5,C[Te]c1cccc([Te]C)c1/N=N/c1c([Te]C)cccc1[Te]C [(TeMe)4-H],^d
6,"COc1cc(/N=N/c2cc(OC)c(CNC(=O)OC(C)(C)C)cc2OC)c(OC)cc1CNC(=O)OC(C)(C)C [OMe2,m-OMe2]",^c
7,C[Te]c1cccc(F)c1/N=N/c1c(F)cccc1[Te]C [Te2F2-H],^d

# Same assay, conditions: room temperature; listed as Te4
row,SMILES,Photo-switching / photo-isomerisation detected
1,C[Te]c1cccc([Te]C)c1/N=N/c1c([Te]C)cccc1[Te]C [(TeMe)4-H],No photo-switching was detected
